Library screen at single concentrations

Protein sequences, listed by entry. Tags and fused reporters are not part of them.
UniProt P9WNZ1, whole entry: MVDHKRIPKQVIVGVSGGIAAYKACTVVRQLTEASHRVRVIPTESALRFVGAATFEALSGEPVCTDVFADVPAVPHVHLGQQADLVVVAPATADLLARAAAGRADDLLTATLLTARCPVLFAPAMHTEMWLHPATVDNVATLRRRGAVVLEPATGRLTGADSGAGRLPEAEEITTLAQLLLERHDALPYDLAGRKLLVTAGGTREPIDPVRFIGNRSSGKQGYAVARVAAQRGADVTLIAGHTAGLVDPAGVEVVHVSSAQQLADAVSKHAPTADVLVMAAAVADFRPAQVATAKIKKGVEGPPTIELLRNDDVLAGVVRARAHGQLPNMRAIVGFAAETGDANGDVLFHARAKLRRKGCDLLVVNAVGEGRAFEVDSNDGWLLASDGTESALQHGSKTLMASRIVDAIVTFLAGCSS

From ChEMBL document CHEMBL3988442, “University of Dundee, Small-Polar-MMV Screening Library” (2021).

A: 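Assay of Toxoplasma gondii numbers, read through their beta-galactosidase reporter with a colour substrate. Compounds at 10 µM. Higher reads as fewer parasites (inferred from which compounds were picked for retests). Of about 67,000 compounds tested this way, about 260 (0.38%) reached 50% or more in at least one test.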
B: 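Enzyme assay of CoaBC with a phosphate dye (Biomol Green) read at 650 nm. Target: Coenzyme A biosynthesis protein CoaBC, Mycobacterium tuberculosis (UniProt P9WNZ1). Tested at 30 µM. Direction is inferred from only a few compounds that gave an IC50; most scored high, so higher reads as stronger inhibition. Most strong results did not repeat in a second test. Of about 67,000 compounds tested this way, about 40 (0.06%) reached 50% or more in at least one test.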

Each number is a percent effect as filed.
The record does not define 0% and 100%; most values in the screen are far below 50% and negative numbers occur (in some assays of this library far below -100).
The compounds are a random part of those screened.
A dash means the value is not listed here; it may have been measured.

structure | A | B
Cc1sc2ncnc(N3CCCC3Cn3cccn3)c2c1C (stereo unspecified) | -10.78 | 3.236
CNC(=O)C1CN(C)CCN(CCCOc2ccccc2F)C1 (stereo unspecified) | -0.7059 | -0.8653
CCCN(Cc1cccnc1)C1CC(C)(C)NC(C)(C)C1.O=C(O)CC(O)(CC(=O)O)C(=O)O | -8.015 | -
CN1CC(=O)N(c2cccc(F)c2)CC12CCN(Cc1ccco1)C2 (stereo unspecified) | 8.691 | 5.684
C[C@@H](NC(=O)c1cccs1)c1onc(-c2cccnc2)c1C(=O)O | - | -25.34
Cc1nn(C)c(C)c1S(=O)(=O)N1CC[C@H]2O[C@@H](C)C[C@H]2C1 | - | 3.732
COCCCC(=O)NC1(c2cccc(Br)c2)CC1 | -0.885 | 2.244
Cc1ccc(C)c(C(C)NC(=O)N2CCC(n3cncn3)CC2)c1 (stereo unspecified) | 6.031 | 2.551
CN(C)Cc1cnc2n1CCN(C(=O)NCc1ccccc1)CC2.O=C(O)C(F)(F)F | -2.643 | -
CC(C)N(Cc1cccc(F)c1)Cc1nc2c(cnn2C)c(=O)[nH]1 | -3.534 | 0
CC(=O)N1CCN(Cc2c(C)ccc3ccccc23)CC(O)C1 (stereo unspecified) | -1.112 | -1.961
O=C(O)C(F)(F)F.O=C(O)c1c(-c2cccnc2)ncc2c1CCN(CC1CCOC1)C2 (stereo unspecified) | 2.675 | -
[H][C@]12CC[C@]([H])(CN(c3nccc(C)n3)C1)N(CC1CCC1)C2=O | 4.818 | -
CC(C)CC(NCc1ccsc1)c1ccccn1 (stereo unspecified) | -6.5 | -5.825
CN(C)C1CCCN(C(=O)NCCNC(=O)C2CCCCC2)C1 (stereo unspecified) | -0.9238 | -11.36
CCS(=O)(=O)N1CCc2cc(C(=O)NC)c(NCC3CC3)nc2CC1 | -22.24 | 8.271
CS(=O)(=O)NCC(=O)N1CCCC1c1noc(C2CC2)n1 (stereo unspecified) | -4.185 | 4.018
Cc1nc(-c2ncc(C(=O)NCCNc3ncccc3C)c(O)n2)cs1 | -0.2959 | 2.836
CCCOc1ccc(Cl)cc1CNc1ncnc2oc(C)nc12 | 57.15 | -4.054
Cn1nc(Cn2cccn2)c2c1CN(Cc1ccoc1)C2.O=C(O)C(F)(F)F | 6.649 | -
Cc1nc(CN2CCCc3cc(OC(F)(F)F)ccc32)oc1C | 20.15 | -9.759
CC(C)OCCn1nnnc1Cc1ccc(Br)cc1 | 6.041 | -
C[C@]1(O)CCN(Cc2cncs2)C[C@@H]1Oc1cccc(F)c1 | -1.703 | 0.3927
O=C(NCCNc1ncccn1)C1CC(=O)N(CC(F)(F)F)C1 (stereo unspecified) | 2.47 | 1.542
CC(=O)N1CCC(c2noc(C3CCC(=O)N3)n2)CC1 (stereo unspecified) | 16.41 | 2.055
O=C(C[S+]([O-])c1ccc(F)c(F)c1)NCc1cc(F)cc(F)c1 (stereo unspecified) | -1.789 | -7.231
CC(C)(C)c1nc(CN2CCC(N3CCCCC3)CC2)no1 | -53.54 | -216.9
O=C(Cc1cccs1)N1C[C@@H]2CC[C@H](C1)N(Cc1ccccn1)C2=O | - | 10.73
Cc1noc(C(C)N2CCN(Cc3cccc(C#N)c3)CC2)n1 (stereo unspecified) | 2.581 | 9.474
O=C(Cc1ccc2c(c1)OCCO2)N1CCCC(n2ccnc2)C1 (stereo unspecified) | 5.848 | 8.205
CN(Cc1ccco1)[C@@H]1CN(CC2CCOCC2)[C@@H]2CCCO[C@H]12 | - | 3.09
CN1C(=O)CCCC12CCCN(Cc1nccs1)C2.O=C(O)C(F)(F)F (stereo unspecified) | 8.567 | -
O=C(C[C@H]1[C@H]2CN(Cc3ccc(F)cc3)C[C@@H]12)N1CCCC1 | - | 4.835
CC(C)N(C)S(=O)(=O)c1ccc2c(c1)CCN(C(=O)c1cnccn1)C2 | -17.37 | 5.646
[H][C@]12CCN(Cc3ccco3)[C@@]1([H])CC[C@H](COCc1cccc(C)n1)O2 | -4.091 | -
CCc1noc(C2CCCCN2C(=O)c2ccc(C)o2)n1 (stereo unspecified) | 7.609 | 8.314
CN1CCCCC1c1ncc2c(n1)CCN(Cc1ccc(F)cc1)C2 (stereo unspecified) | -21.54 | 7.559
CC(C)C[C@H](N)c1nnc(SCC(N)=O)o1.Cl | -9.838 | -
Cc1ccc(-n2ccnc2)c(C(=O)NCCCN(C)C)c1 | -1.549 | -2.415
COCc1c(C(=O)N2CCCC(C(=O)c3nccn3C)C2)noc1C (stereo unspecified) | -13.8 | -2.521
CC1=C(C#N)C(=O)NC(=O)/C1=C\c1c(C)nn(-c2ccc(Cl)cc2)c1O | -9.156 | 1.104
O=C(CSc1ccc(Br)cc1)NS(=O)(=O)c1ccc2c(c1)OCCO2 | 3.89 | 2.662
CCNC(=O)NC1CN(Cc2ccncc2Cl)C[C@@H]1OC (stereo partly specified) | 1.046 | 5.144
NC(=O)c1cnc(NC(=O)CCc2ccco2)c(Cl)c1 | 0.8207 | -1.138
Clc1cc(CN2CCCC(Cn3cncn3)C2)c2ncccc2c1 (stereo unspecified) | -50.68 | 2.071
N#Cc1ccc(N2CCCN(C(=O)CC3CCCO3)CC2)cc1 (stereo unspecified) | 8.214 | 4.626
CC(C)N(CCS(C)(=O)=O)Cc1csc(Cc2ccc(Cl)cc2)n1 | -0.6676 | 1.737
COc1cccc(C2CCCN2Cc2nc3c(cnn3C)c(=O)[nH]2)c1 (stereo unspecified) | - | 2.057
Cc1ccc(C(=O)NS(=O)(=O)c2cc(F)ccc2F)c(=O)[nH]1 | -3.797 | 1.786
Cn1cc(CN2CCCC23CCN(C(=O)c2cccs2)CC3)cn1 | - | 0.8403
CCS(=O)(=O)NC(C(=O)NC)c1ccc(F)c(F)c1 (stereo unspecified) | 14.73 | 8.903
Cc1ccc(CN(C)CC(=O)NC2(C)CCS(=O)(=O)C2)cc1 (stereo unspecified) | 0.6303 | -2.999
COCCNC(=O)CN1CCN(c2nc3cc(C)ccc3o2)CC1 | 4.184 | 17.93
CS(=O)(=O)N1CC2(CCN(C3CCCCC3)C2)Cc2ccccc21 (stereo unspecified) | -0.3412 | -6.053
Cc1csc(N2CCN(C(=O)c3cc(C4CC4)[nH]n3)CC2)n1 | -46.9 | 4.912
C/N=C1\c2cc3cc(OC)ccc3n2CCN1C | - | 1.823
COc1ccc(NC(C)=O)cc1S(=O)(=O)Nc1ccon1 | 5.964 | -29.43
C[C@H]1CN(C(=O)c2cscn2)C[C@@]12CCN(c1ccsc1)C2=O | -25.2 | 7.75
CC(C)c1nnc2ccc(N3CCC(C(=O)NC4CC4)CC3)nn12 | -21.41 | 1.768
Cc1ccc(CC(=O)N2CC[C@@H]3CN(CCN(C)C)CCO[C@@H]3C2)cc1 | - | 2.314
C[C@@H]1CN(c2ccc(Cl)cn2)C[C@@]1(O)C1CC1 | -9.677 | 5.502
[H][C@@]12CCN(C(=O)c3cscn3)[C@]1([H])CN(C(=O)C1CCOC1)C2 (stereo partly specified) | 12.95 | -
CCNC(=O)CN(CC)C(=O)c1cc(-c2cccc(Cl)c2)no1 | 5.133 | 1.945
CNC(=O)C1(C)CN(c2nc(C)cc(C)n2)CCO1 (stereo unspecified) | -8.01 | -16.32
Cc1nc(C)n(CC2CCCCN2CC(=O)Nc2ccncc2)n1 (stereo unspecified) | 0.9529 | -0.4819
COc1ccc(CN2C[C@H]3CCC[C@@H](CN(C)C)[C@H]3C2)cn1 | - | -2.083
Cc1nc(CN2CCOC3(CCCC3)C2)no1 | 7.997 | 3.14
O=C(O)C(F)(F)F.O=C(O)C(F)(F)F.[H][C@@]12COC[C@]1([H])[C@@H](OCC1CCN(C)CC1)CN2Cc1c(C)noc1C | 11.09 | -
CCCNC(=O)CCNC(=O)c1sc2ccc(F)cc2c1C | 7.43 | 5.896
COc1cc(CNC(=O)NCc2c(C)cc(C)[nH]c2=O)ccc1C | 1.411 | 3.723
Cc1ccc(S(=O)(=O)NCCNC(=O)c2ccoc2)cc1F | 1.101 | 6.25
Cc1ccc(CN(C)C(=O)CN2CCOC(Cn3cccn3)C2)o1 (stereo unspecified) | -15.06 | -7.775
CC(=O)N1CCN2C[C@H](CO)[C@@H](c3ccccc3)[C@H]2C1 | - | 0.9685
Cc1c[nH]c(C2CCCN(C(=O)CCc3c(C)n[nH]c3C)C2)n1 (stereo unspecified) | -14.81 | -5.024
[H][C@]12CN(Cc3cccc4[nH]ccc34)C[C@]1([H])N(C1CCOCC1)C(=O)CO2 | 8.706 | -
COCCC1COC2(CCN(C(=O)c3cccnc3)CC2)C1.O=C(O)C(F)(F)F (stereo unspecified) | -3.854 | -
O=C1Nc2ccccc2CN(CC2CCCC2)C12CCNC2 (stereo unspecified) | 13.48 | 2.895
CC(C)Oc1ccccc1C1CC(=O)Nc2nc(N3CCOCC3)sc21 (stereo unspecified) | -14.42 | 3.418
Cl.c1cc(NCc2ccncc2)nc(C2CCCN2)c1 (stereo unspecified) | -4.952 | -
Cc1cc(C)nc(NCc2cc3n(n2)CCCN(C(=O)C2CCC2)C3)n1 | -21.36 | 4.685
Cc1ncsc1C(=O)NCCNC(=O)Cc1cccc(F)c1 | 7.881 | 0.5102
Cn1cc(CN2CCCC3(CCN(c4cccnc4)C3=O)C2)cn1 (stereo unspecified) | -6.529 | -0.6085
CCc1nsc(N2CCN(Cc3ccno3)CC2)n1 | 0.2157 | -